Drawing on article PMC7819943, “Rice protein-binding microarrays: a tool to detect cis-acting elements near promoter regions in rice”, this text covers binding signal for 54 sequences.

Chains of the proteins cited; added tags and fusions are not shown.
UniProt Q0JBA9, entry or part of it: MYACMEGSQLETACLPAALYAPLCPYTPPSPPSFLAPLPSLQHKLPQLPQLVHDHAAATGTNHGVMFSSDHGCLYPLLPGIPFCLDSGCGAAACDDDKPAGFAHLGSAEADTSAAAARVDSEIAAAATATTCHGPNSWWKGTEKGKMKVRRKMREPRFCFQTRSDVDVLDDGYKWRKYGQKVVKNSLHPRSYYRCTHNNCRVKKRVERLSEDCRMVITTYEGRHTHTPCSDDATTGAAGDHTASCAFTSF

This is one part of the list.

The target in the assay is OsWRKY34 (Oryza sativa, UniProt Q0JBA9 1-250). Description: protein-binding microarray (RPBM); PBS, 2% BSA, 51.3 ng/ul salmon testes DNA, 50 uM zinc acetate, 200 nM TF, 25 C, 1 h; high values mean tight binding. To be noted: protein: recombinant; tags: N-terminal polyhistidine and DsRed monomer fusion (pET32a); label: CyDye5-dUTP incorporated in the synthesized complementary strand; 3' TTTTT single-stranded linker to array surface; dsDNA, one strand shown. A digest of the protocol: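 In PBS with 2% BSA, salmon testes DNA and 50 µM zinc acetate, 200 nM protein was incubated on a custom Agilent array at 25 °C for 1 h and then washed off. The array had been made double-stranded by primer extension with Cy5-dUTP and blocked with 2% BSA. The proteins were transcription factors fused N-terminally to polyhistidine and DsRed, expressed in E. coli BL21-CodonPlus and purified on Ni–NTA. The binding signal is per-feature fluorescence intensity (arbitrary units) from an Axon 4000B scanner.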
For the sequence “AATTTCTCGGTCTAACCAAATGCCCACCCGTACTACTACACGGAGTCACCTAGTGCAG”, the binding signal is 8410 fluorescence intensity (a.u.).
As for “AAACCCACTAATTATTGTCCTTCATTTGGCCCTTCATATACGGAGTCACCTAGTGCAG”, the binding signal was 8560 fluorescence intensity (a.u.).
“TGTGCTTTTTAATGTTTTATGGGATTTTTTCTAACTCTCACGGAGTCACCTAGTGCAG”: the binding signal was 8710 fluorescence intensity (a.u.).
The same measure for “TCGGCTCTCCGATCTCGAATTCCCCTGGCTTTCTCGCCTACGGAGTCACCTAGTGCAG”: 8350 fluorescence intensity (a.u.); for “CTTTCCGTCTTCCACCCGAGTTGTCGCCGACTAGATCATCCGGAGTCACCTAGTGCAG”: 9600 fluorescence intensity (a.u.); for “ACGATATGACGTTTCTACCCCTCATTGCCATGCATTCTACCGGAGTCACCTAGTGCAG”: 9220 fluorescence intensity (a.u.).
With “TTCCTTTTTCATCTTCTTTTCACATTTTTTCTTTATTTTTCGGAGTCACCTAGTGCAG”, the binding signal was 12400 fluorescence intensity (a.u.).
As to “ATTCCCATTGCTTGTTTGATTGTGGTTTTGCCACAGGGTGCGGAGTCACCTAGTGCAG”, the binding signal was 9560 fluorescence intensity (a.u.).
Turning to “CACCTACACCGCATCACGTGCCGTCCACCTGGATCTTATCCGGAGTCACCTAGTGCAG”, the binding signal was 9190 fluorescence intensity (a.u.).
For “TCAAGTTCATCCTCAACCCAAAGTTTTCCTCTCTCTTCTCCGGAGTCACCTAGTGCAG”, the binding signal was 8240 fluorescence intensity (a.u.).
For “CAATAATTCTTCTGCTCTGCTAATTATTAGCTCTCATCTTCGGAGTCACCTAGTGCAG”, the binding signal was 10300 fluorescence intensity (a.u.).
The result for “TTCCATCCGCTATTCTGGCCATCTCTCTAGCTCCTTGTATCGGAGTCACCTAGTGCAG” reads 14000 fluorescence intensity (a.u.); that for “CACCAACACAGTTTGTAATGCATGTGTTCCCTTTTTTGCTCGGAGTCACCTAGTGCAG”, 8730 fluorescence intensity (a.u.).
Turning to “CTCCTCTCGTTTGGTTCTCCTCTGTCCATGCAGTAACTGACGGAGTCACCTAGTGCAG”, the binding signal is 9240 fluorescence intensity (a.u.).
Regarding “TTTTCTTATTGAATTGTTGGCTACAATTTTTCTTTGGTTCCGGAGTCACCTAGTGCAG”, the binding signal is 8090 fluorescence intensity (a.u.).
The result for “CGTGTTTGGTTGTCCGGACCACACCTGGCTTGCACCTAGCCGGAGTCACCTAGTGCAG” reads 8820 fluorescence intensity (a.u.).
For “CTCAAATAACTCAACGTTGCTCCTGTACACCTCGAACCTCCGGAGTCACCTAGTGCAG”, the binding signal is 8680 fluorescence intensity (a.u.).
The same measure for “AAAGTCATCTTTATCTTCTTCTGCTTGTGCATGTGTGACACGGAGTCACCTAGTGCAG”: 8590 fluorescence intensity (a.u.); for “AAGTTTCATTTTCGGTTGTGGGGACATCTATTTGAGCGTGCGGAGTCACCTAGTGCAG”: 9070 fluorescence intensity (a.u.); for “ATTACTCTCTCTTTCATGTGCATGCGTGCTAGTTTGCATACGGAGTCACCTAGTGCAG”: 8470 fluorescence intensity (a.u.).
The same measure for “TCTCGCTGAACGCCACGCTGCTCTCCGCTCTTCCTCCAGGCGGAGTCACCTAGTGCAG”: 8500 fluorescence intensity (a.u.).
The same measure for “TATCTTACATCCCAAGGTATTACGTTAACATATTTTGGGTCGGAGTCACCTAGTGCAG”: 8750 fluorescence intensity (a.u.).
For the sequence “TTATGTAATCCAATTCGCATCCGTCGATCACAAACCCACCCGGAGTCACCTAGTGCAG”, the binding signal is 9060 fluorescence intensity (a.u.).
For the sequence “GTTAATTGGTTAATTCCATTGTTTCGCGCTCGTGGTTTCTCGGAGTCACCTAGTGCAG”, the binding signal is 15600 fluorescence intensity (a.u.).
Take “GTTTTGGGTCTCGGATTGATCGCTTGGAGCTCCATTGCCACGGAGTCACCTAGTGCAG”: the binding signal is 9220 fluorescence intensity (a.u.).
The same measure for “GAGTTGGTTGTCCTATAGGACGAGGCTTGGGAAGTGTTGACGGAGTCACCTAGTGCAG”: 8420 fluorescence intensity (a.u.); for “GATGTTCAATTCTCATGTTCTTATACTATATCGCACCCACCGGAGTCACCTAGTGCAG”: 9990 fluorescence intensity (a.u.).
“ATCCTAGTCTCTTGCTCCTTTTGTGGAGTGTTCTTTCTGTCGGAGTCACCTAGTGCAG”: the binding signal was 8840 fluorescence intensity (a.u.).
Regarding “TAGTTCCTTTCTTGACTTTTTTTTCCTTTTCTGCCCCTATCGGAGTCACCTAGTGCAG”, the binding signal was 10200 fluorescence intensity (a.u.).
In the case of “GTTTGCATCCATCGTCTACCCGATACACCGGCGCTCTCCGCGGAGTCACCTAGTGCAG”, the binding signal was 9820 fluorescence intensity (a.u.).
Regarding “GTCGAAATCCCATTTCCTTTCAGCGACCGCACAGAAACCTCGGAGTCACCTAGTGCAG”, the binding signal was 8070 fluorescence intensity (a.u.).
The same measure for “AGCCATAAATCACACCCATTCATCTCTCTCAACTCTCTGCCGGAGTCACCTAGTGCAG”: 8460 fluorescence intensity (a.u.); for “TGTTCATCTACTATATGATTGTGTGCATGATATCATCGTCCGGAGTCACCTAGTGCAG”: 9620 fluorescence intensity (a.u.).
The result for “AAGTTGTGGTTTGATGGAGAAGATAAGCTAATTCCTTGGTCGGAGTCACCTAGTGCAG” reads 8430 fluorescence intensity (a.u.); that for “CCAACCCTGCCTTCCGCACGCCGCACCTCCGCACCGCCTACGGAGTCACCTAGTGCAG”, 10700 fluorescence intensity (a.u.); that for “CTCATCTCATCTCCACCGTCAATTCGTTTCGCTATCCTCCCGGAGTCACCTAGTGCAG”, 11200 fluorescence intensity (a.u.).
In the case of “CCTATGCGTGATCCGCAACCGCTCTCAACCTCCAAGAGCTCGGAGTCACCTAGTGCAG”, the binding signal is 8690 fluorescence intensity (a.u.).
Regarding “ACGCGGGCGAGGTTGGTTGGCTTGTTCTTTCGTTGATGTGCGGAGTCACCTAGTGCAG”, the binding signal is 14300 fluorescence intensity (a.u.).
Consider “ACAGGGGAGGGGCGGCGATCTCCATCCGGCGAGCGGAGCACGGAGTCACCTAGTGCAG”, for which the binding signal is 12200 fluorescence intensity (a.u.).
The result for “ACCTCGTCCTACTCCTATCACATCATACCACACAGCAATGCGGAGTCACCTAGTGCAG” reads 8160 fluorescence intensity (a.u.).
“ATCACTTTACTAACTTTTTCTTTATCCCCTCCTTTCTTCACGGAGTCACCTAGTGCAG”: the binding signal was 8990 fluorescence intensity (a.u.).
On to “ATTTTGGGAATCATTTCTTAGTTGTTCTGTATATATACGACGGAGTCACCTAGTGCAG”, for which the binding signal was 8070 fluorescence intensity (a.u.).
On to “CAGAACGACCGACCGTACTTCTGGTTCCCCGTCCACCTCCCGGAGTCACCTAGTGCAG”, for which the binding signal was 9330 fluorescence intensity (a.u.).
As for “AGCCCATCGAACGACCCACCTACGTACGCCGCGTGGTCCTCGGAGTCACCTAGTGCAG”, the binding signal was 8270 fluorescence intensity (a.u.).
As for “GGGGTGGTGGGTGGCAAGGGGCTGCGCCGCCATCCCATCACGGAGTCACCTAGTGCAG”, the binding signal is 9800 fluorescence intensity (a.u.).
As to “CATGTCTGTCAGATTCAGAAGTGGATTGCTGCGCACCGGCCGGAGTCACCTAGTGCAG”, the binding signal was 9140 fluorescence intensity (a.u.).
Take “AACCATGTATACCTTTCTTCATCAGCTACCGGAACAATTGCGGAGTCACCTAGTGCAG”: the binding signal was 8192 fluorescence intensity (a.u.).
The result for “GCTTCTGCTTCTTCTTGTTCTTGTTGCTGTTGGTAATACTCGGAGTCACCTAGTGCAG” reads 11000 fluorescence intensity (a.u.); that for “CTCACGGACCTTTTCCTGGGACCTTTTTTGCACTTTTCTTCGGAGTCACCTAGTGCAG”, 11700 fluorescence intensity (a.u.); that for “TGACTAACCTGCCTGATTGTCACAGGTCCCACTAGCTCTTCGGAGTCACCTAGTGCAG”, 10300 fluorescence intensity (a.u.).
As to “CTCCTTGTCGTTTATCGTGTAAACCATCCATGCATCTCCACGGAGTCACCTAGTGCAG”, the binding signal is 9340 fluorescence intensity (a.u.).
Take “GGTGGTGTTCTTTTCTTCTGTAAATAAGTGATTAATTAAGCGGAGTCACCTAGTGCAG”: the binding signal is 8720 fluorescence intensity (a.u.).
The result for “GCTACAACTCTTATCATATCTTCGCCTATATATATCGCTCCGGAGTCACCTAGTGCAG” reads 9490 fluorescence intensity (a.u.); that for “GATCTCTCTTTATTTTCAGTGTAGCTGAATTTGACATTTTCGGAGTCACCTAGTGCAG”, 8050 fluorescence intensity (a.u.).
